These are yes or no findings as the source states them, for the method shown. Binding seen in cells or lysates may run through a third protein.
Molecular target: FLAG-tagged HCV JFH1 NS5A (genotype 2a) (hepatitis C virus JFH1 (genotype 2a))
Experiment: co-IP; FLAG-specific immunoprecipitation (anti-FLAG M2 affinity gel, 1 h, 4°C) from lysates of lentivirally transduced cells; NP-40 lysis buffer (50 mM Tris pH 7.4, 150 mM NaCl, 1% NP-40); lysates pre-incubated with 100 U/ml RNaseOUT or 100 μg/ml RNase A for 45 min at 4°C; immunoblot

B1: RNA helicase MOV10 (protein, UniProt Q9HCE1 1-1003)
chain: MPSKFSCRQLREAGQCFESFLVVRGLDMETDRERLRTIYNRDFKISFGTPAPGFSSMLYGMKIANLAYVTKTRVRFFRLDRWADVRFPEKRRMKLGSDISKHHKSLLAKIFYDRAEYLHGKHGVDVEVQGPHEARDGQLLIRLDLNRKEVLTLRLRNGGTQSVTLTHLFPLCRTPQFAFYNEDQELPCPLGPGECYELHVHCKTSFVGYFPATVLWELLGPGESGSEGAGTFYIARFLAAVAHSPLAAQLKPMTPFKRTRITGNPVVTNRIEEGERPDRAKGYDLELSMALGTYYPPPRLRQLLPMLLQGTSIFTAPKEIAEIKAQLETALKWRNYEVKLRLLLHLEELQMEHDIRHYDLESVPMTWDPVDQNPRLLTLEVPGVTESRPSVLRGDHLFALLSSETHQEDPITYKGFVHKVELDRVKLSFSMSLLSRFVDGLTFKVNFTFNRQPLRVQHRALELTGRWLLWPMLFPVAPRDVPLLPSDVKLKLYDRSLESNPEQLQAMRHIVTGTTRPAPYIIFGPPGTGKTVTLVEAIKQVVKHLPKAHILACAPSNSGADLLCQRLRVHLPSSIYRLLAPSRDIRMVPEDIKPCCNWDAKKGEYVFPAKKKLQEYRVLITTLITAGRLVSAQFPIDHFTHIFIDEAGHCMEPESLVAIAGLMEVKETGDPGGQLVLAGDPRQLGPVLRSPLTQKHGLGYSLLERLLTYNSLYKKGPDGYDPQFITKLLRNYRSHPTILDIPNQLYYEGELQACADVVDRERFCRWAGLPRQGFPIIFHGVMGKDEREGNSPSFFNPEEAATVTSYLKLLLAPSSKKGKARLSPRSVGVISPYRKQVEKIRYCITKLDRELRGLDDIKDLKVGSVEEFQGQERSVILISTVRSSQSFVQLDLDFNLGFLKNPKRFNVAVTRAKALLIIVGNPLLLGHDPDWKVFLEFCKENGGYTGCPFPAKLDLQQGQNLLQGLSKLSPSTSGPHSHDYLPQEREGEGGLSLQVEPEWRNEL
binding: no binding

Reference: paper PMC8084336
